# Experimental data taken from PMC11165742.
# Protein sequences, listed by entry. Tags and fused reporters are not part of them.
# UniProt Q6SEG5: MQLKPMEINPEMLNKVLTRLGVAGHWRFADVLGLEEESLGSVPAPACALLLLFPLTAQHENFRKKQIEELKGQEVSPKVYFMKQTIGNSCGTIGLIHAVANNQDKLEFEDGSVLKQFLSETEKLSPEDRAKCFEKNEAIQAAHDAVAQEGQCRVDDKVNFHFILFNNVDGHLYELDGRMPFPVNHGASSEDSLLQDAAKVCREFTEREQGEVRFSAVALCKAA
# UniProt D2IE28: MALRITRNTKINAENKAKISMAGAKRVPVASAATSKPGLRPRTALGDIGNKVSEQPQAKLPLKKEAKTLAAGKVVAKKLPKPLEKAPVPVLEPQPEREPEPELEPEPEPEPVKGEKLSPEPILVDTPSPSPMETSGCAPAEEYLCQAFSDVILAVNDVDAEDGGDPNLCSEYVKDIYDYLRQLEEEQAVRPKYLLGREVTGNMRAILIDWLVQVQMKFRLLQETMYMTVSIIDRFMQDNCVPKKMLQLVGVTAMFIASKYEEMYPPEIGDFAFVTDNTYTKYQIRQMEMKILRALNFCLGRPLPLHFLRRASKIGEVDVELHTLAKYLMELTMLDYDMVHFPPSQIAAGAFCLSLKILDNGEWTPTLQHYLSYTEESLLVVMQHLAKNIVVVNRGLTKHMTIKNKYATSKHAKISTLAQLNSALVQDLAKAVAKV
# Results are given in words; binding and its absence hold for the method and conditions named. In cells and extracts the contact can be indirect. Some binding calls cover weakened binding; strength is not graded here.
# Assays:
# [1] = biological target: ubiquitin carboxyl-terminal hydrolase 1 (UCHL1) (pig (endogenous in porcine granulosa cells)) (UniProt Q6SEG5); assay: co-IP; porcine GC lysate (IP cell lysate buffer) with anti-UCHL1, anti-CCNB1 or IgG overnight at 4 °C, protein G magnetic beads 2 h, washed three times, immunoblot; both directions
# [2] = biological target: cyclin B1 (CCNB1) (pig (endogenous in porcine granulosa cells)) (UniProt D2IE28); assay: as above
binding [1],binding [2],Substance
binds,–,cyclin B1 (CCNB1) (from UniProt D2IE28 1-435)
–,binds,ubiquitin carboxyl-terminal hydrolase 1 (UCHL1) (from UniProt Q6SEG5 1-223) (enzyme)
